Results of single-concentration screens

Protein sequences, listed by entry. Tags and fused reporters are not part of them.
UniProt P9WPC5, whole entry: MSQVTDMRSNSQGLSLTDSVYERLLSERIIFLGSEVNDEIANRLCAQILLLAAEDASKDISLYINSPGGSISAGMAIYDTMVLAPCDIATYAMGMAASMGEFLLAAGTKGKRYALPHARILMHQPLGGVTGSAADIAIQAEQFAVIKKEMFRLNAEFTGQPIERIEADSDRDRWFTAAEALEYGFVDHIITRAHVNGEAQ
UniProt P9WPC3, whole entry partner: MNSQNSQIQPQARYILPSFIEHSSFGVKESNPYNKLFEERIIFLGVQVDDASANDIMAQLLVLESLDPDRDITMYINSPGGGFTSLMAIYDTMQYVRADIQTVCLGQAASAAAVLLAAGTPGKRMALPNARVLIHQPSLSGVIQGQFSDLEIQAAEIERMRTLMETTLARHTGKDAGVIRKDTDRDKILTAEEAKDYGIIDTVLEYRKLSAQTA

Toxoplasma: 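Assay of Toxoplasma gondii numbers, read through their beta-galactosidase reporter with a colour substrate. Tested at 10 µM. The record gives no direction; the compounds picked for IC50 retests had high values, so higher reads as fewer parasites. Size under these conditions: about 67,000 compounds, about 260 of them at 50% or above in at least one test.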
ClpP1P2: 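Protease assay of ClpP1P2, read by the AMC dye that it sets free. Target: ClpP1P2, Mycobacterium tuberculosis (UniProt P9WPC5 and UniProt P9WPC3). Tested at 50 µM. Direction is inferred from only a few compounds that gave an IC50; most scored high, so higher reads as stronger inhibition. Most other retested compounds had strongly negative values. About 69,000 compounds were tested under these conditions; 0.015% (about 10) showed 50% or more at least once.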
Leishmania in macrophages: 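Cell assay of Leishmania donovani living inside macrophages; the read-out is not stated. Tested at 30 µM. Higher reads as stronger inhibition (inferred: compounds with an IC50 in retests scored well above the rest). Of about 69,000 compounds tested this way, about 1,000 (1.5%) reached 50% or more in at least one test.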
T. brucei: 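Whole-parasite assay of Trypanosoma brucei over 72 hours; the read-out is not stated. Tested at 30 µM. Higher reads as stronger inhibition (inferred: compounds with an IC50 in retests scored well above the rest). Values scatter widely below zero; nearly all retest evidence comes from the higher of the two concentrations used. Size under these conditions: about 64,000 compounds, about 940 of them at 50% or above in at least one test.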

The filed quantity is “Percent Effect” (%). The record does not define 0% and 100%; most values in the screen are far below 50% and negative numbers occur (in some assays of this library far below -100). The compounds are a random part of those screened. Two or more numbers in one place are separate tests of the same structure; such repeats can differ widely. A dash means the value is not listed here; it may have been measured.

SMILES	Toxoplasma	ClpP1P2	Leishmania in macrophages	T. brucei
[H][C@@]12CN(c3cc(OC)ncn3)C[C@@H](C(=O)NCCOC)[C@]1([H])CCO2	7.84	-	7.324	-17.3
CN(C)C(=O)[C@@H]1CCO[C@@H]2CCN(Cc3ccccc3)C[C@@H]21	-	0.5408	-	-
Cc1[nH]ccc1C(=O)N1CCC(c2nnc(Cn3ccnc3)n2C)CC1	-1.141	9.421	-5.576	-35.07
CC(C)c1cc(NCC(O)c2ccncc2)n2nccc2n1 (centres unmarked)	-4.696	-10.09	-12.18	-18.27
O=C(CCc1cc2n(n1)CCCNC2)NCCS(=O)(=O)N1CCCC1	35.04	-2.805	10.79	-73.27
CC(=O)N1CCC(c2cnc(-c3c(C)n[nH]c3C)cn2)CC1	-1.042	-4.57	9.045 & 5.638	2.67
Cn1c2ncccc2c(=O)n1CC(=O)NCCc1c(F)cccc1F	3.499	-7.17	-4.335	-18.33
Cc1ccccc1-n1ncc2c(=O)n(CCN3CCCC3)cnc21	37.15	7.607	-4.61	-42.71
CC1CN(C(=O)CN(Cc2ccccc2Cl)C2CCCC2)CCO1 (centres unmarked)	-2.808	-20.1	-7.329	-
CN1CCC(NN2CCN(C)CC2)CC1	-1.095	4.817	-16.78	2.45
Cc1c[nH]c(CN(C)C(=O)CCn2cnc3ccccc32)n1	0	-12.87	-4.181	-29.11
[H][C@]12CC[C@]([H])(CN(c3ncccn3)C1)N(C(=O)c1cccnc1SC)C2	2.335	-	12.5	6.639
[H][C@]12CNCCN1C[C@@H](c1ccccc1)[C@@H]2C(=O)NC	-8.831	-	3	-21.82
CSc1ccc(NC(=O)NCC2CCCO2)cc1F (centres unmarked)	9.353	-5.951	-50.42	-
O=C(NCC1CCCO1)c1coc(Cn2cnc3ccccc32)n1 (centres unmarked)	-12.81	25.94	13.35	23.71
Cc1ccc(CNC(=O)NC2CCC(O)CC2)c(N2CCCC2)c1 (centres unmarked)	8.126	-0.7693	19.22	-18.55
CCc1nc(N2CCC3(CC2)[C@H](O)C[C@@H]3O)ncc1C	6.742	-6.653	-6.687	-2.791
FC(F)(F)c1cc(C2CCCN(Cc3cccnc3)C2)n[nH]1 (centres unmarked)	-36.79	-5.451	29.33	-53.35
O=C(c1ccc(C2CCCO2)s1)N1CCCOCC1 (centres unmarked)	-6.435	-2.232	10.3	-15.05
Cc1ccsc1CNc1ccc(C(=O)N2CCNC(=O)C2)cn1	-1.452	-2.074	18.37	-34.78
Cc1cc(CN(CCO)c2ccccc2)on1	-4.258	-12.13	24.46	-12.39
CC(C)c1nc(C2CCCN2c2ccnc(C3CCCC3)n2)no1 (centres unmarked)	-6.321	0.5035	-47.29	-51.91
Cc1cnn(Cc2cc(F)ccc2F)c1NC(=O)NC1CC1	6.388	-8.198	11.7	12.03
Cc1cnn(CC2CCCN2C(=O)c2cc3ccccc3c(=O)[nH]2)c1 (centres unmarked)	-4.196	-42.02	9.735	-
CC(C)CN1CCC(NC(C)c2ccccc2-n2cccn2)CC1 (centres unmarked)	0.2251	-3.676	-2.167	-5.994
Cc1ccsc1CN1CCC2(CC1)CC(OCc1cccnc1)CO2 (centres unmarked)	-	-0.2383	-	-
CC(C)NC(=O)N1CCc2c(CNc3ncccn3)cncc2C1	-	-9.209	-	-
[H][C@]12C[C@H](C(=O)NC)N(C)[C@@]1([H])CN(C(=O)c1ccc(C)nc1)C2	2.86	-	26.97	-20.69
Cn1cnc2c1C(COCC1CC1)CN(C(=O)Cc1ccsc1)C2.O=C(O)C(F)(F)F (centres unmarked)	0.3326	-	14.75	18.71
Cc1n[nH]cc1C(=O)N1CCCC(n2nnc3cc(F)ccc32)C1 (centres unmarked)	3.605	5.859	-1.239	21.47
CCN(CC1CCOC1)C(=O)c1ccccc1N1CCOCC1 (centres unmarked)	-2.95	13.17	-9.978	-65.47
CC(C)c1noc(CN2CCN(C(=O)c3cc(Cl)ccc3F)CC2)n1	-29.43	-3.706	25.82	-0.07816
Cc1nc(CC2CCN(Cc3ccc(CCC(C)(C)O)cc3)CC2)no1	0.4255	-13.58	11.3	-0.2557
Cn1cccc1C(=O)NCc1cnc2n1CCN(CC1CC1)C2	-	4.022	-	-
CN(c1ccc(CNc2c(Cl)cccc2C#N)cc1)S(C)(=O)=O	-2.518	-3.293	15.05	6.874
Cc1nc(CN2CCCC(NCc3ccc4ccccc4c3)C2)no1 (centres unmarked)	-15.94	9.389	27.39	3.346
CS(=O)(=O)NC(c1ccccc1)c1ccc2c(c1)CCCO2 (centres unmarked)	15.91	-9.365	-1.624	-
CN(Cc1ccccn1)c1nccc(N2CCN[C@H]3CS(=O)(=O)C[C@H]32)n1	-	1.158	-	-
O=C(NCC1(CO)CC1)c1ccccc1F	-30.54	-7.204	26.93	-15.5
Cc1nc(COCC2CNCc3nccn3C2)cs1 (centres unmarked)	4.369	14.68	-4.492	-37.34
Cc1nccc(-c2cccc(NCC(=O)N3CCc4sccc4C3)c2)n1	-6.968	5.653	48.6	51.17
CCC(C)(C)NC(=O)C[S+]([O-])Cc1csc(C2CCCC2)n1 (centres unmarked)	-5.16	-4.885	-28.7	-
NC(=O)CS(=O)(=O)Cc1cc(Cl)c2c(c1)OCCCO2	21.62	1.358	-20.3	-
COC(=O)c1cc(C2CC2)nc2c(Cl)cnn12	-5.578	-11.6	-3.623	-7.751
CCN(Cc1ccc2c(c1)OCO2)C(=O)c1ccc(C)[nH]c1=O	4.658	8.984	-18.09	1.704
COc1c(CNCc2ccccc2CO)c(C)nn1C	-9.37	-6.853	9.264	-25.42
CCOCc1nn(CC2CC2)c2c1CN(C(=O)c1ccno1)CC2	8.882	3.047	5.383 & -5.924	-8.866
c1cncc(COCC2CC[C@H]3[C@H]2OCCN3Cc2ccoc2)c1 (some centres unmarked)	-	3.352	-	-
Cc1ccc(CN2CCO[C@H]3[C@H](OCc4cccnc4)CC[C@@H]32)o1	-	24.18	-	-
COc1nc2ccccc2cc1CN1CCCC(CNC(C)=O)C1 (centres unmarked)	4.959	-13.56	29.13	-6.295
CCN1CCOCC12CCN(c1ccc(C#N)cc1)CC2	-	3.561	-	-
C=C(C)CN1CCN(Cc2cnc(-c3ccccc3C)nc2)CC1.O=C(O)CC(O)(CC(=O)O)C(=O)O	-3.193	-	6.703	-9.174
CC(C)N1CCc2c(CNC(=O)c3nccn3C)cncc2C1.Cl.Cl.Cl	-9.89	-	10.31	-27.16
O=C(NCCc1ccccn1)C1CC(=O)N(CC(F)(F)F)C1 (centres unmarked)	-28.22	-21.97	3.027	-17.69
Cc1cc(OC(F)F)c(C(=O)N2CCN(C3CC3)CC2)s1	-5.95	1.58	1.268	4.861
COc1cccc(C(=O)NCc2ccccc2S(=O)(=O)N(C)C)c1	-4.161	-8.437	16.98	-14.12
COCc1nc(C(=O)N2CCCC(n3ccnc3C(C)C)C2)cs1 (centres unmarked)	-30.82	-13.13	22.11	-
Cc1ccc(-c2noc(CC[C@@H]3CCCN4CCCC[C@H]34)n2)nn1	-	-4.706	-	-
CCCc1cc(C(=O)NC2CCCCNC2=O)[nH]n1 (centres unmarked)	-6.901	-5.762	0.9128	-12.3
COc1cccc(OC2CN(C(=O)c3sccc3C)C2)c1	11.1	-2.321	-10.75	-15.56
COc1cc(N2CC[C@@H](OC)[C@@H]2Cc2cnn(C)c2)ncn1	3.598	18.05	19.5	-17.7
COCCN1CCC(c2nc3c([nH]2)CC(C)(C)CNC3=O)CC1	2.982	-6.926	12.58	-22.26
CC(C)(C)c1cc(C(=O)N2CCOC(c3cnccn3)C2)[nH]n1 (centres unmarked)	-2.443	-2.09	20.22	9.801
CN(CC(O)C1CC1)C(=O)c1ccc(-c2nc(C3CC3)no2)cc1 (centres unmarked)	4.817	-5.338	14.25	-4.221
C[C@H]1CN(C(=O)c2cccnc2)C[C@@]12CCN(CCN1CCCC1)C2=O	9.816	-6.827	23.34	-54.22

Some entries from above, unchanged:

SMILES	Toxoplasma	ClpP1P2	Leishmania in macrophages	T. brucei
O=C(CCc1cc2n(n1)CCCNC2)NCCS(=O)(=O)N1CCCC1	35.04	-2.805	10.79	-73.27
COc1cccc(C(=O)NCc2ccccc2S(=O)(=O)N(C)C)c1	-4.161	-8.437	16.98	-14.12
Cn1c2ncccc2c(=O)n1CC(=O)NCCc1c(F)cccc1F	3.499	-7.17	-4.335	-18.33
Cc1n[nH]cc1C(=O)N1CCCC(n2nnc3cc(F)ccc32)C1 (centres unmarked)	3.605	5.859	-1.239	21.47
CC(C)NC(=O)N1CCc2c(CNc3ncccn3)cncc2C1	-	-9.209	-	-
CN(C)C(=O)[C@@H]1CCO[C@@H]2CCN(Cc3ccccc3)C[C@@H]21	-	0.5408	-	-
C[C@H]1CN(C(=O)c2cccnc2)C[C@@]12CCN(CCN1CCCC1)C2=O	9.816	-6.827	23.34	-54.22

Data taken from ChEMBL document CHEMBL3988442, “University of Dundee, Small-Polar-MMV Screening Library” (2021).